# Measurements reported in PubChem BioAssay AID1259308 (NCATS, 2017).
# Aim: 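Genes whose loss raises luciferase production in HEK293 cells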 (primary screen)
# Cell system: human HEK293 embryonic kidney cells stably expressing firefly luciferase (HEK-CMV-Luc2-Hygro)
# Knock-down reagent: single siRNA against human genes, 0.8 pmol siRNA per well
# Duration: 72 h
# Detection: 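Reporter luminescence and viable-cell signal on separate replicate plates, given as percent of non-targeting control and median/MAD z-scores, plus per-cell luciferase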
# Scale: total luciferase, z-score and total luciferase, % of control: higher = more reporter protein produced; luciferase per cell, z-score: higher = more reporter output per viable cell; viable cells, % of control: higher = more viable cells
# Hit rule: 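Active when the median/MAD z-score for overall luciferase is greater than 3; a gene was taken forward for validation with new siRNAs if at least two of its three siRNAs passed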
# Calls: active = raised luciferase; inactive = no rise
# The whole screen tested about 59,000 reagents; this is a random part of them. Over the whole deposit, about 1,510 (2.6%) got an active call. 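Calls use total luciferase alone and ignore viability, so some active siRNAs may act by altering cell number.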 Reagents against one gene are numbered here.
gene knocked down,reagent no.,"total luciferase, z-score","total luciferase, % of control","luciferase per cell, z-score","viable cells, % of control",Call
ACHE,1,1.81,118,1.09,99,inactive
ACHE,2,0.742,96.6,0.369,98,inactive
ACHE,3,-0.546,71,-0.866,99.7,inactive
PTPRS,1,0.971,101,0.648,95.3,inactive
PTPRS,2,0.582,93.5,-0.000855,104,inactive
PTPRS,3,-0.577,70.4,-1.33,112,inactive
HADHB,1,-0.313,75.7,-0.409,94.2,inactive
HADHB,2,-0.449,73,-0.968,105,inactive
HADHB,3,0.556,92.9,0.0088,104,inactive
COLEC11,1,2.48,131,1.7,93.8,inactive
COLEC11,2,2.19,126,1.62,91.5,inactive
COLEC11,3,0.232,86.5,0.084,94.5,inactive
ZC3H14,1,-1.6,50.2,-1.1,74.9,inactive
ZC3H14,2,0.122,84.3,-0.372,104,inactive
ZC3H14,3,-0.786,66.3,-0.224,78.5,inactive
WASHC4,1,-1.79,46.3,-2.69,105,inactive
WASHC4,2,0.492,91.7,0.436,91.3,inactive
WASHC4,3,1.05,103,0.878,91.1,inactive
ZNF141,1,0.201,85.9,0.116,93.1,inactive
ZNF141,2,0.588,93.6,0.357,95.2,inactive
ZNF141,3,-0.634,69.3,-0.756,94.5,inactive
USP17L2,1,1.2,106,2.01,69.6,inactive
USP17L2,2,-0.6,70,-0.781,96,inactive
USP17L2,3,0.797,97.7,0.351,99.6,inactive
SSBP3,1,0.0825,83.5,-0.433,105,inactive
SSBP3,2,0.346,88.8,0.0837,97,inactive
SSBP3,3,-0.116,79.6,-0.401,98.8,inactive
LDHAL6A,1,0.645,94.7,0.974,81.9,inactive
LDHAL6A,2,-1.48,52.5,-1.97,98.6,inactive
LDHAL6A,3,-0.0444,81,0.416,81.1,inactive
ABHD11,1,0.688,95.6,0.791,86.7,inactive
ABHD11,2,-0.195,78,0.179,83.2,inactive
ABHD11,3,-2.87,24.8,-2.78,57.7,inactive
PDE9A,1,-0.667,68.6,-0.377,84.7,inactive
PDE9A,2,-0.918,63.6,-1.57,107,inactive
PDE9A,3,1.65,115,2.06,74.5,inactive
FUT4,1,0.568,93.2,0.966,80.8,inactive
FUT4,2,0.76,97,0.292,100,inactive
FUT4,3,0.17,85.3,0.999,73.2,inactive

6 entries from above, ordered by “viable cells, % of control”, ascending.
gene knocked down,reagent no.,"total luciferase, z-score","total luciferase, % of control","luciferase per cell, z-score","viable cells, % of control",Call
USP17L2,1,1.2,106,2.01,69.6,inactive
USP17L2,2,-0.6,70,-0.781,96,inactive
SSBP3,2,0.346,88.8,0.0837,97,inactive
SSBP3,3,-0.116,79.6,-0.401,98.8,inactive
USP17L2,3,0.797,97.7,0.351,99.6,inactive
SSBP3,1,0.0825,83.5,-0.433,105,inactive
